Test results: PMC12148026
Results are given in words; binding and its absence hold for the method and conditions named. In cells and extracts the contact can be indirect. Some binding calls cover weakened binding; strength is not graded here.

Sequences of proteins named here, by UniProt entry; tags and fusion partners are left off. A change or cut given only in a name is not applied to a line headed by its entry.
UniProt Q96C45: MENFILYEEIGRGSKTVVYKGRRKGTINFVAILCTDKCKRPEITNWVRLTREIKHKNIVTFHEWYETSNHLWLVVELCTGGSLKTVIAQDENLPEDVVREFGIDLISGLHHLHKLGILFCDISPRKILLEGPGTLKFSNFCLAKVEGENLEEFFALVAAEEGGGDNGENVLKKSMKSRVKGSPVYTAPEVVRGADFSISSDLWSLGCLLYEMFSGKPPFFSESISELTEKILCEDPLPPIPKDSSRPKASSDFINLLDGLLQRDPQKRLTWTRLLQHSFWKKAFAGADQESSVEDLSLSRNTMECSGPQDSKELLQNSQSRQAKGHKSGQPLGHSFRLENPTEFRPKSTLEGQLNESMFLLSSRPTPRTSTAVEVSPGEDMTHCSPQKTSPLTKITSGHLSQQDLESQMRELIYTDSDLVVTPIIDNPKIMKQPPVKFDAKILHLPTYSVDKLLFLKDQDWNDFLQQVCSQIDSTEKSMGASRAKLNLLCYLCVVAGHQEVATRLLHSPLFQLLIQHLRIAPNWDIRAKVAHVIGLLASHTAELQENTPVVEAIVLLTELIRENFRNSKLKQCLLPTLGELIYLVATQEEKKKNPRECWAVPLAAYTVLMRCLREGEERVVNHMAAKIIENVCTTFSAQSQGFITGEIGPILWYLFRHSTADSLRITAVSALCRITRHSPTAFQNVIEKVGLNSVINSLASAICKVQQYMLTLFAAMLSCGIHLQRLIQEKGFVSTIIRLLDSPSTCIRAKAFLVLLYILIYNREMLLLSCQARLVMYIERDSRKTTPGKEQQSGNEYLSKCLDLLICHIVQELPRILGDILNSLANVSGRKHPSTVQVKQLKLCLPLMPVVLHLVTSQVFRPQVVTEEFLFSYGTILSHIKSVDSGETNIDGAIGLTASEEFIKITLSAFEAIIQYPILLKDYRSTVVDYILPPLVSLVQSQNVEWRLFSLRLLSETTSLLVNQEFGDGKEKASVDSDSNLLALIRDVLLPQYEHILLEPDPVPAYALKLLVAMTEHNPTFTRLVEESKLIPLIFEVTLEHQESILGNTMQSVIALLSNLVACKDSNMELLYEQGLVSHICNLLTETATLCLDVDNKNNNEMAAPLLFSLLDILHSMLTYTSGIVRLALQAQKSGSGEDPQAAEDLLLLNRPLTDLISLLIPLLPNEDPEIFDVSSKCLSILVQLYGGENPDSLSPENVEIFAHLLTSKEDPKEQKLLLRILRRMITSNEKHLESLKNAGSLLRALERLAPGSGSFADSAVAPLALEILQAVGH

Target: C-terminally HA-tagged wild type human Ulk4 (Ulk4-WT–HA) (human) (UniProt Q96C45)
Experiment: co-IP; HEK293T cells transfected with Fg-tagged and HA-tagged Ulk4 constructs, immunoprecipitation and western blot with the indicated antibodies (which tag was precipitated is not given)

binding: binds
Substance: Flag-tagged Ulk4-EE (Ulk4-EE–Fg), phospho-mimetic human Ulk4 T1021E/T1023E (from UniProt Q96C45 1-1275)
